Measured values taken from patent US20090305962A1.
These are yes or no findings as the source states them, for the method shown. Some results given as binding are weak or reduced against the parent protein; the word gives no strength.

Protein sequences, listed by entry. Tags and fused reporters are not part of them. Lines headed by an entry give the natural chain unless they say otherwise; changes in a name come on top.
UniProt P05231: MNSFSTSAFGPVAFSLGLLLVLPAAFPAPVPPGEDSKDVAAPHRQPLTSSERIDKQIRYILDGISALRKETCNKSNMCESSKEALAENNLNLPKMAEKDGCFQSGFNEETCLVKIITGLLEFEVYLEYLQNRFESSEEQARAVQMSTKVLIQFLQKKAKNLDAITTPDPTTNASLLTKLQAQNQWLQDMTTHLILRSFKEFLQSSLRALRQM

B1: SEQ ID NO 909 (designed binder)
chain: CPRTSSAAATANAIHGPGFATAILICPDDSDEDGCPPRTCSPNQFQCGSGYCISQRWVCDGEIDCEDGSDEANCAGSVPKCPSDAFRCRNGRCIPRAWRCDGINDCVDNSDEEECREHT
B2: SEQ ID NO 910 (designed binder)
chain: B1 chain
B3: SEQ ID NO 917 (designed binder)
chain: CPSPVPVRQRPLRSTGLGLRRRQCLSDDSDEEGCPARTCGPGQFQCGSGYCISQRWVCDGENDCEDGSDEANCAGSVPTCTSDEFRCRNGRCIPRAWRCDGVKDCADNSDEEPCKEHQ
B4: SEQ ID NO 928 (designed binder)
chain: B1 chain

Legend:
human IL-6 (human) [1] = molecular target: human IL-6 (human) (UniProt P05231); assay: ELISA on IL-6 (also TF1 cell assay)
human IL-6 (human) [2] = molecular target: human IL-6 (human) (UniProt P05231); assay: panning and screening on IL-6

| Binder | binding (human IL-6 (human) [1]) | binding (human IL-6 (human) [2]) |
| --- | --- | --- |
| B1 | binds |  |
| B2 | binds |  |
| B3 | binds |  |
| B4 | binds |  |
| CPSSQFQCSSGWCIPEDWRCDGVPDCGDGSDEASDH (designed binder) [SEQ ID NO 566] |  | binds |
| CAPSQFQCGSGYCIPLTWVRDGVDDCEDGSDEEDCSQDPEFHKV (designed binder) [SEQ ID NO 567] |  | binds |
